Test: peptide synthesis
Settings: conjugation step, SYMMETRY C18 5 um 100 A 250*4.6 mm

Which “crude HPLC purity” value does the source give for “p-aminobenzoyl-Gly-Pro-D-Leu-D-Ala-NHOH on Gd^3+ chelator (DOTA)” here?
Its value is 92%.
